Here are results for 4 substances from paper PMC7198521.

The chains behind the UniProt entries cited, without tags or fusion partners.
UniProt Q9UPS8: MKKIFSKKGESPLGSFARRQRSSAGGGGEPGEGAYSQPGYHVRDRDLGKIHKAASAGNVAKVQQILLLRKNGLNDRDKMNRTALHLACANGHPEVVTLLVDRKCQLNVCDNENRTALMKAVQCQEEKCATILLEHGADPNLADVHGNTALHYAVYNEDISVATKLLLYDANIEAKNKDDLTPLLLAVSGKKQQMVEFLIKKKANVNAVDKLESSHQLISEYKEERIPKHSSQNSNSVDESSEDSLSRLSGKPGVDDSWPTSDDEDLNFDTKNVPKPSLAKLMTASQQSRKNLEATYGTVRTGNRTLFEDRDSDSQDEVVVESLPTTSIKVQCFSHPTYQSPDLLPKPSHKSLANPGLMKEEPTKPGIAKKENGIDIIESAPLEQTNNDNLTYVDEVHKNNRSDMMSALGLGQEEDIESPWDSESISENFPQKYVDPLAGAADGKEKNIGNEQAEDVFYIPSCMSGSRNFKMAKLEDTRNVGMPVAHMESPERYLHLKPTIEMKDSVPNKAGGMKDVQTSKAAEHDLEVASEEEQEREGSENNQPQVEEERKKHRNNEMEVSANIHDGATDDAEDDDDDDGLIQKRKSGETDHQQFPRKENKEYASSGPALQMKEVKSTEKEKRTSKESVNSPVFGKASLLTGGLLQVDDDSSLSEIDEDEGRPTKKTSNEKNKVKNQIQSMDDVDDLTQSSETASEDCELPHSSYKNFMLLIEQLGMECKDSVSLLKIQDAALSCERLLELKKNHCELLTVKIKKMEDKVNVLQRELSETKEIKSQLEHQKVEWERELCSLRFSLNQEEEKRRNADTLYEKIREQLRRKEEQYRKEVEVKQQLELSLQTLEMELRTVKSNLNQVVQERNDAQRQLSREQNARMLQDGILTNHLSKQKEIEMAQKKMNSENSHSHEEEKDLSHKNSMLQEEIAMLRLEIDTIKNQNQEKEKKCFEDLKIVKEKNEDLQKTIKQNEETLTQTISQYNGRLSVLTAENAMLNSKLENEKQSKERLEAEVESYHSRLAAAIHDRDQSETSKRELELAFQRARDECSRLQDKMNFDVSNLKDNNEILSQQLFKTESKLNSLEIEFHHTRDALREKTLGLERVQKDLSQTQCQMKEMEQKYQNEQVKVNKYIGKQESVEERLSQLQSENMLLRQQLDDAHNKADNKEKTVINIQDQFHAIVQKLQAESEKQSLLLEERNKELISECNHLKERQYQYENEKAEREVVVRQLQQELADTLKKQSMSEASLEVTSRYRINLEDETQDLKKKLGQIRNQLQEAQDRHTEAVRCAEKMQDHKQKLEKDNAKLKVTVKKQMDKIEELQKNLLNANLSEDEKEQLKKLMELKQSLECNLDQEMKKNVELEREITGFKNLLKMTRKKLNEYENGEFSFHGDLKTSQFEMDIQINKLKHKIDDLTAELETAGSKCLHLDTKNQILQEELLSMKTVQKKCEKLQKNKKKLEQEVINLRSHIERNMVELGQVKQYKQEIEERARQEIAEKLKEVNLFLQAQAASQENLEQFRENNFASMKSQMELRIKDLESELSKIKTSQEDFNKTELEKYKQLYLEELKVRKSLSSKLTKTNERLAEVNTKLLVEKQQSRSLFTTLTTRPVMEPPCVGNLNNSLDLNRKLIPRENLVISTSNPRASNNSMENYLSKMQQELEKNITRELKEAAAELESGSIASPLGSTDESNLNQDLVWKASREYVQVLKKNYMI
UniProt Q9BVV6: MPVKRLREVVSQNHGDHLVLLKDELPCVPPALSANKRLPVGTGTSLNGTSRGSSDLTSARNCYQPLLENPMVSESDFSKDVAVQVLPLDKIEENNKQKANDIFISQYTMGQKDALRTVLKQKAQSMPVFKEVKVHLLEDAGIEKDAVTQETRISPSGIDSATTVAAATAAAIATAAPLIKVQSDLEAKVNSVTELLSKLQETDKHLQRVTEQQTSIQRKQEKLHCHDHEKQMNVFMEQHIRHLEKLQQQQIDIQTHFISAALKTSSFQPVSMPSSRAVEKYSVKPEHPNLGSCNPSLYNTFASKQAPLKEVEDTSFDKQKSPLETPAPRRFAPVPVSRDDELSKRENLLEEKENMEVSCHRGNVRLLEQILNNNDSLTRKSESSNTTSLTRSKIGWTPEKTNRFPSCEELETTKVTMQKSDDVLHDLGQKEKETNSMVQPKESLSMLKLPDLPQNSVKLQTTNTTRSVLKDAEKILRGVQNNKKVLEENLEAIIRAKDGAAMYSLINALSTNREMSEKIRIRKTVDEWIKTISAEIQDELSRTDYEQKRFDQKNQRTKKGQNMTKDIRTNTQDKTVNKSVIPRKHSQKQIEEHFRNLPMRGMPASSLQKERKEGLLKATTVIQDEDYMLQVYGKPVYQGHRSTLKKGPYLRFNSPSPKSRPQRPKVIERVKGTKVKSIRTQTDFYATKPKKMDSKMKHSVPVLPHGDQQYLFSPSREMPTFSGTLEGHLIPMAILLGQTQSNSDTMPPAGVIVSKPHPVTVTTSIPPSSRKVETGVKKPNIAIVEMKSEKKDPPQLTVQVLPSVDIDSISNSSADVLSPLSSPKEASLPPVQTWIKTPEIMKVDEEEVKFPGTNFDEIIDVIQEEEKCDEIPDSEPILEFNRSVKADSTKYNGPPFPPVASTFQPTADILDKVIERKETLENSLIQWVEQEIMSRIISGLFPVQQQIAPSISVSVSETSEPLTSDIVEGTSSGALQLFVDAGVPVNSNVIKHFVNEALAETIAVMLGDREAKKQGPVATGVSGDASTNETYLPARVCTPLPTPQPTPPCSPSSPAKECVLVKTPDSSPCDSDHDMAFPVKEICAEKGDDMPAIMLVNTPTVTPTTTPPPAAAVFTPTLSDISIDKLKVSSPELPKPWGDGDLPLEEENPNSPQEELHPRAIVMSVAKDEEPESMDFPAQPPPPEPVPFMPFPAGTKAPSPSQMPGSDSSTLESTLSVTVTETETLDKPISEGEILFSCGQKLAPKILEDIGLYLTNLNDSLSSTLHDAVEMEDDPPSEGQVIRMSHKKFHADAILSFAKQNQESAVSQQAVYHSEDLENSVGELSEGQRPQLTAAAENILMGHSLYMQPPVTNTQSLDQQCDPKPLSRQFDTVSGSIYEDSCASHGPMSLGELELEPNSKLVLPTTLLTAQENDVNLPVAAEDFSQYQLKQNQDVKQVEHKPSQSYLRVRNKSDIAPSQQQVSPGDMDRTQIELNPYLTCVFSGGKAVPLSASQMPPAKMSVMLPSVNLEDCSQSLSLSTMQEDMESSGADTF

Assay [1] addresses ANKRD26 (co-immunoprecipitation) (human (endogenous in HEK293T)) (UniProt Q9UPS8). Description: co-IP; lysates of HEK293T cells in IP buffer (20 mM Hepes-KOH pH 7.2, 10 mM KCl, 1.5 mM MgCl2, 1 mM EDTA, 1 mM EGTA, 150 mM NaCl, 0.5% NP-40); called endogenous in the results.
Assay [2] concerns the target T1, FBF1 (co-immunoprecipitation) (human (endogenous in HEK293T)) (UniProt Q8TES7).
T1 sequence: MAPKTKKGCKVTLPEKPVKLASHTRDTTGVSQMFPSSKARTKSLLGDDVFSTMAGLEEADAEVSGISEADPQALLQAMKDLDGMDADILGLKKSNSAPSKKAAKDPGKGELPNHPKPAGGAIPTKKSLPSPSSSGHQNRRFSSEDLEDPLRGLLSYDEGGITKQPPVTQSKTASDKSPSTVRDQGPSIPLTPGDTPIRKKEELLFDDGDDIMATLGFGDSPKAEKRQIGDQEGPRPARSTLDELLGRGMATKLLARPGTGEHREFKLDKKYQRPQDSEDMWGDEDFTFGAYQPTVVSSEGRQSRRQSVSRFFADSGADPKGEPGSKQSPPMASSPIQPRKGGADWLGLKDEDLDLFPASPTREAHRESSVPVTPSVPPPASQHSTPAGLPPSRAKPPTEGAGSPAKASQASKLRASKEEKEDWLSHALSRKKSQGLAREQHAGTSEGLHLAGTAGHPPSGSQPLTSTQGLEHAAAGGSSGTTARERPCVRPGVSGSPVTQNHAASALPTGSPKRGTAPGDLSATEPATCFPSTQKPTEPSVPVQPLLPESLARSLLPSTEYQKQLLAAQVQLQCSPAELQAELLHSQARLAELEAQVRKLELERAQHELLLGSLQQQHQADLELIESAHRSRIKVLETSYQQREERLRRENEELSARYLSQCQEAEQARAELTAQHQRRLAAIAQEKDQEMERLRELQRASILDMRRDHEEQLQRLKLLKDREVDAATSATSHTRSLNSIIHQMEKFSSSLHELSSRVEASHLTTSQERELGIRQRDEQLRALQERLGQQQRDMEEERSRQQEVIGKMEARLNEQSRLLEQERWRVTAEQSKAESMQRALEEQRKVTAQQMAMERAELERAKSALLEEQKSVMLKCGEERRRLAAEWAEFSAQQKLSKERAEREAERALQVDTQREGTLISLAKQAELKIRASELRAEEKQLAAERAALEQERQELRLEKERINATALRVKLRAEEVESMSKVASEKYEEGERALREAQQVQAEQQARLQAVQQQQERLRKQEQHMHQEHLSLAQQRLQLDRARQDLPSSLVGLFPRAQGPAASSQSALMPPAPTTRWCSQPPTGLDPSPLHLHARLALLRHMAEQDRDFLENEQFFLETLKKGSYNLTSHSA
Described as above.

In assay [3] the target is T2, FBF1 (recombinant, GST pull-down) (human) (UniProt Q8TES7).
T2 sequence: T1 sequence
Briefly: pull-down; purified GST fusion protein immobilised on glutathione Sepharose beads, incubated with His fusion protein 4 h at 4 °C; 50 mM Tris-HCl pH 7.4, 150 mM NaCl, 1% Triton X-100, 1 mM dithiothreitol, 10% glycerol; western blot with anti-His antibody; both purified.

Assay [4] concerns the target ANKRD26 (recombinant, GST pull-down) (human) (UniProt Q9UPS8). Described as above.

These are yes or no findings as the source states them, for the method shown. For part of these data: In cells and extracts the contact can be indirect. Some results given as binding are weak or reduced against the parent protein; the word gives no strength. For part of these data: Sequences can lack the tags named with a protein.

Regarding “TALPID3 (co-immunoprecipitation) (from UniProt Q9BVV6 1-1533)”, the binding result in assay [1] and in assay [2] was “binds” in each case.
On to “ANKRD26 (co-immunoprecipitation) (from UniProt Q9UPS8 1-1710)”, for which the binding entry in assay [2] is listed as “binds”.
For “ANKRD26 (recombinant, GST pull-down) (from UniProt Q9UPS8 1-1710)”, the binding entry in assay [3] was “binds”.
Turning to “TALPID3 (recombinant, GST pull-down) (from UniProt Q9BVV6 1-1533)”, the binding entry in assay [3] and in assay [4] was “binds” each time.
